# The whole screen tested about 340,000 compounds, of which about 170 (0.05%) were called active. Inconclusive means that the source gave no clear call. Such entries were picked first, then a sample of the others. Calls follow the shape of the dose curve; as a rule, active = well fitted inhibition curve with a large enough effect in the signal ratio, with a control signal flat (not every such curve was filed as active); inconclusive = small, poorly fitted or top-dose-only effect, or effect the other way, or a change in a side signal; inactive = flat fitted curve, though single readings scatter; the % refers to the signal ratio. Where the call is inconclusive, the potency comes from a doubtful curve fit.
# Assay: qHTS Assay to Find Inhibitors of Chronic Active B-Cell Receptor Signaling;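 as to activity change, negative = inhibition: plate controls were basal doxycycline-induced cells for no effect and cells given 10 µM MG132 for full effect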
# Conditions: ABC-DLBCL IkBa-CBG/CBR reporter, luminescence ratio (green luciferase fused to IkBa over red control in TMD8 lymphoma cells), 4 h; activity change, negative = inhibition: at 46.1 µM (top of the series)
# Outline: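 TMD8 ABC-DLBCL cells carrying doxycycline-inducible green luciferase fused to IkappaBalpha plus unfused red luciferase were exposed to compounds (up to 46 uM) for 4 hrs at 37C. Activity came from the overlap-corrected green/red luminescence ratio.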
# Potency is read from the fitted curve at half-maximal effect.
Structure (SMILES),Potency,"activity change, negative = inhibition"
Cc1ccc(C(=O)c2c[nH]c(C(=O)NCc3cccnc3)c2)cc1,"inconclusive: 25.9 µM [falling, partial curve, poor fit]",
COc1cc(CN2CCCC(C)C2)ccc1OCc1ccccc1 (configuration not stated),,inactive
CCCCOc1ccc(/C=C2/Sc3ccccc3C2=O)cc1,"inconclusive: 16.4 µM [falling, partial curve]",
CCOC(=O)/C(=N/Nc1ccccc1)c1csc(Nc2ccccc2)n1,"inconclusive: 29.1 µM [rising, single point]",
COc1cc(C2C(C#N)=C(N)N(N(C)C)C3=C2C(=O)CCC3)cc(OC)c1OC (configuration not stated),,inconclusive: -0.495%
COc1cccc(NC(=O)CN2C(=O)NC3(CCCC3)C2=O)c1,,inactive
COc1ccc(-c2c(-c3ccc(OCC(=O)NN)cc3O)n[nH]c2C)cc1,,inconclusive: 19.1%
COc1cccc(-c2sc3ccc(OC)cc3c2-c2ccc(OCCN3CCCC3)cc2)c1,"inconclusive: 29.1 µM [falling, single point]",
NNc1nc2ccccc2nc1C(F)(F)F,,inactive
CCc1nnc(NC(=O)c2oc3ccc(Br)cc3c2C)s1,,inconclusive: 6.51%
CC1CCCC(C)N1C(=O)COc1ccc(C(=O)N/N=C/c2ccc(C(=O)O)cc2)cc1 (configuration not stated),"inconclusive: 10 µM [falling, partial curve, poor fit]",
CC[n+]1c(/C=C2\C=C(C)CC(C)(C)C2)sc2ccccc21,"inconclusive: 35.5 µM [falling, single point]",
O=C(/C=C/c1ccc(F)cc1)NCc1cccs1,"inconclusive: 20.6 µM [falling, single point]",
CC(C)C(NC(=O)c1ccc(F)cc1)C(=O)N1CCC1 (configuration not stated),,inactive
O=C(c1ccccc1)c1cnc(-c2ccccc2)s1,"inconclusive: 3.55 µM [falling, full curve, poor fit]",
CC1=C(C(=O)Nc2ccccc2C(=O)NC2CCCCC2)SCCO1,,inactive
COCCCNC(=S)NCCNc1nc2cc(C)cc(C)c2cc1C#N,,inactive
CCc1ccc(C(=O)Cn2cnc3cc([N+](=O)[O-])ccc3c2=O)cc1,,inconclusive: 3.28%
CC(C)Cn1c(SCC(=O)Nc2ccc3[nH]c(=O)[nH]c3c2)nc2ccccc2c1=O,"inconclusive: 8.2 µM [falling, partial curve, poor fit]",
CCC1(c2ccc(F)cc2)NC(=O)N(CC(=O)Nc2ccc(C)c(S(=O)(=O)N3CCOCC3)c2)C1=O (configuration not stated),,inconclusive: 0.59%
Cc1ccc(S(=O)(=O)Cc2cccc(C(=O)N3CCOCC3)c2)cc1,,inconclusive: 0.206%
CC1=Nc2cccc3cccc(c23)N1,,inactive
Cc1cccc(NS(=O)(=O)c2cc(C(=O)N3CCOCC3)ccc2Cl)c1,,inconclusive: -7.9%
Cc1cc(CC(C)C)n(-c2nc3ccccc3c(=O)n2OCc2ccccc2)n1,,inconclusive: 11.2%
CCN1C(=O)[C@@H]2[C@@H](c3ccc(-c4ccc(F)cc4)cc3)N3CCC[C@@]3(C(=O)OC)[C@@H]2C1=O,,inactive
CC(=O)CC1OC(=O)C(Br)=C1NCc1ccccc1 (configuration not stated),,inconclusive: 12%

Structure (SMILES),Potency,"activity change, negative = inhibition"
Cc1cccnc1Nc1nc(-c2ccc(O)cc2)cs1,"inconclusive: 6.51 µM [falling, single point]",
O=C(C1COc2ccccc2O1)N1CCN(c2ccccc2)CC1 (configuration not stated),,inconclusive: 8.37%
CCOC(=O)C1(CCOc2ccccc2)CCN(Cc2ccc(OCCO)cc2)CC1,,inactive
CCC(CC)C(=O)Nc1cccc(C(=O)NCCc2ccccc2)c1,,inconclusive: -15.8%
O=C(Nc1ccc(N2CCOCC2)nc1)c1ccc(F)cc1,"inconclusive: 16.4 µM [falling, partial curve]",
CCOc1ccc(N(CC(=O)N2CCOCC2)S(=O)(=O)c2ccc(Cl)cc2)cc1,,inactive
COC(=O)c1cccc(NC(=O)CSc2nc(=O)cc(N)n2-c2ccccc2)c1,,inactive
O=C(NCCN1CCOCC1)c1cc2c(=O)n3ccccc3nc2n1Cc1ccccc1,,inactive
O=C(COC(=O)c1cncc(Br)c1)NCc1cccs1,,inconclusive: 6.13%
CC1CC(C)CN(c2ncnc3c2cnn3-c2ccc(Cl)cc2)C1 (configuration not stated),,inconclusive: 10.8%
CC(C)C(=O)Nc1cc(S(=O)(=O)Nc2cccc(Cl)c2)ccc1Cl,,inconclusive: 6.25%
CCCCNc1c(-c2ccc(SC3CCCCC3)c(OC)c2)nc2ccc(C)cn12,,inactive
O=C(Cn1cnc2ccc(Br)cc2c1=O)c1cccs1,"inconclusive: 14.1 µM [falling, single point]",
CC(C)NC(=O)CSc1nc2ccccc2n1-c1ccccc1,"inconclusive: 0.461 µM [rising, full curve, poor fit]",
O=C(NCCCN1CCOCC1)c1cc(-c2ccc(Cl)cc2)on1,,inconclusive: -7.4%
CCOC(=O)C(C)Sc1nc2c(c(=O)[nH]c(=O)n2C)n1Cc1ccc(Cl)cc1 (configuration not stated),,inconclusive: -5.95%
C=CCc1cccc2cc(C(=O)OCC)c(=O)oc12,,inconclusive: 0.333%
COc1ccc2c(c1OC)C(=O)N1C2SC[C@H]1C(=O)NC1CCCC1 (some centres not stated),,inconclusive: 6.07%
CC1CCc2nc(NC(=O)C3CCCO3)sc2C1 (configuration not stated),"inconclusive: 20.6 µM [falling, partial curve]",
OCC#Cc1ncc(C(F)(F)F)cc1Cl,,inconclusive: 2.52%
O=C(CSCc1nc2ccccc2[nH]1)Nc1ccc2ccccc2c1,,inactive
CN1C(=O)C2C=CC1C1C(=O)N(c3ccccc3)C(=O)C21 (configuration not stated),,inconclusive: 9.36%
COc1ccc(NC(=O)CN2C(=O)c3ccccc3Sc3ccc(C(=O)N4CCOCC4)cc32)c(OC)c1,"inconclusive: 2.51 µM [falling, single point]",
CC(C(=O)NC(C)(C)C)N(C(=O)CS(=O)CC(=O)Nc1ccc(F)cc1)c1ccccc1F (configuration not stated),,inconclusive: 3.43%
CC(=O)Nc1cc(C(=O)N2CCCC2)ccc1Sc1ccc(Cl)cc1,"inconclusive: 20.6 µM [falling, partial curve]",
COC(=O)CC1C(=O)NCCN1C(=S)Nc1ccc(F)cc1 (configuration not stated),,inactive

# Some of the entries so far, tab-delimited.
Structure (SMILES)	Potency	activity change, negative = inhibition
Cc1cccnc1Nc1nc(-c2ccc(O)cc2)cs1	inconclusive: 6.51 µM [falling, single point]	
O=C(C1COc2ccccc2O1)N1CCN(c2ccccc2)CC1 (configuration not stated)		inconclusive: 8.37%
CCOC(=O)C1(CCOc2ccccc2)CCN(Cc2ccc(OCCO)cc2)CC1		inactive
CCC(CC)C(=O)Nc1cccc(C(=O)NCCc2ccccc2)c1		inconclusive: -15.8%
COC(=O)c1cccc(NC(=O)CSc2nc(=O)cc(N)n2-c2ccccc2)c1		inactive
O=C(COC(=O)c1cncc(Br)c1)NCc1cccs1		inconclusive: 6.13%
CC(C)C(=O)Nc1cc(S(=O)(=O)Nc2cccc(Cl)c2)ccc1Cl		inconclusive: 6.25%
CCCCNc1c(-c2ccc(SC3CCCCC3)c(OC)c2)nc2ccc(C)cn12		inactive
CC(C)NC(=O)CSc1nc2ccccc2n1-c1ccccc1	inconclusive: 0.461 µM [rising, full curve, poor fit]	
O=C(NCCCN1CCOCC1)c1cc(-c2ccc(Cl)cc2)on1		inconclusive: -7.4%
CCOC(=O)C(C)Sc1nc2c(c(=O)[nH]c(=O)n2C)n1Cc1ccc(Cl)cc1 (configuration not stated)		inconclusive: -5.95%
C=CCc1cccc2cc(C(=O)OCC)c(=O)oc12		inconclusive: 0.333%
COc1ccc2c(c1OC)C(=O)N1C2SC[C@H]1C(=O)NC1CCCC1 (some centres not stated)		inconclusive: 6.07%
OCC#Cc1ncc(C(F)(F)F)cc1Cl		inconclusive: 2.52%
O=C(CSCc1nc2ccccc2[nH]1)Nc1ccc2ccccc2c1		inactive
COC(=O)CC1C(=O)NCCN1C(=S)Nc1ccc(F)cc1 (configuration not stated)		inactive

# Reference: PubChem BioAssay AID493014 (National Center for Advancing Translational Sciences (NCATS), 2011)
